This passage reports binding results from patent US20260234660A1, “TREATMENT OF MUSCLE RELATED DISORDERS WITH ANTI-HUMAN CACNG1 ANTIBODIES” (Regeneron Pharmaceuticals, Inc., priority 2023, published 2026).

Sequences of proteins named here, by UniProt entry; tags and fusion partners are left off. A change or cut given only in a name is not applied to a line headed by its entry.
UniProt Q06432: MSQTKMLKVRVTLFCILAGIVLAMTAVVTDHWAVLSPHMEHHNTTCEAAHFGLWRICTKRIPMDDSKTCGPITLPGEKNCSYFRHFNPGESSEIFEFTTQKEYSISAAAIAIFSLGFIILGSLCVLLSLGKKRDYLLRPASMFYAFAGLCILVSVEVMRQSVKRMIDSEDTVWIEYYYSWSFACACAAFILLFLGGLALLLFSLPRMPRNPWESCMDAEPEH

Results are given in words; binding and its absence hold for the method and conditions named. Some results given as binding are weak or reduced against the parent protein; the word gives no strength.

First the molecules themselves.
B1: REGN9909 (antibody, mouse IgG2a, kappa, V domains shown)
VH: EVQLLESGGGLVQPGGSLRLSCAASGFTFNNYGMSWVRQGPGKGLEWVSSISGSGGTTFYADSVKGRFTISRDNSKNTLYLQMNSLRAEDTAVYYCGKGGYCSSSGCRHYGMDVWGQGTTVTVSS
VL: QSVLTQPPSASGTPGQRVTISCSGSSSNIGNNYIYWYQRLPGTTPKLLIYRNNQRPSGVPDRFSGSKSGTSASLAISGLRSEDEADYYCAAWDDTLSGYVFGTGTKVTVLR
B2: REGN10715 (antibody, human IgG4 S228P, kappa, V domains shown)
VH: QVQLQQWGAGLLKPSATLSRTCAVYGGSFSGYYWNWIRQSPGKGLEWIGEILHSGRTNYNPSLKSRVTISVDTSKNQFSLKLTSVTAADTAVYYCAGRIAARHGWFDPWGQGTLVTVSS
VL: DIQMTQSPSSVSTSVGDRVTISCRASQDIRKWLAWYQQKPGKAPKLLIYATSSLQSGVPSRFSGSGSGTDFTLTISSLQPEDFATYFCQQANSFPFTFGQGTKLEIKR
B3: REGN10716 (antibody, human IgG4 S228P, kappa, V domains shown)
VH: QVQLQESGPGLVKPSETLSLTCTVSGDSINNYYWTWLRQPPGKGLEWIGYIYYSGSANYNPSLKSRVTISVDTSKNQFSLKLNSVTAADTAVYYCARGAVKYFRHWGQGTLVTVSS
VL: EIVLTQSPGTLSLSPGERATLSCRASQTINHNNLAWYQQRPGQAPRLLIYGASNRATAIPDRFSGSGSGTDFTLTISRLEPEDFEVYSCQQYGSLPLTFGGGTKVEIKR
B4: REGN10717 (antibody, human IgG4 S228P, kappa, V domains shown)
VH: QVQLVESGGGVVQPGRSLRLSCAASGFTFSTYGMHWVRQAPGKGLEWVAVIWHDGSDKYYVDSVKGRFSIARDNSKNTLYLQMNSLRVEDTGIYYCARRGIRGTVFDHWGLGTLVTVSS
VL: DIQMTQSPSTLSASVGDRVTLTCRASQSISNKLAWYQQKPGKAPNLLIYKASNLESGVPSRFSGSGSGTEFTLTISSLQPDDFATYYCQQYNSYSWTFGQGTKVEIKR
B5: H2aM31944N (antibody, mouse IgG2a, kappa, V domains shown)
VH: QVQLVESGGGVVQPGRSLRLSCEASGITFRNYGMHWVRQAPGKGLEWVAVMWYDGSNKYYADSVKGRFTISRDNSKNTVYLQMNSLRAEDTAVYYCARRGHIATAAPFDYWGQGTLVTVSS
VL: DIQMTQSPSSLSASVGDRVTISCRASQSISSYLNWYQQKPGKAPKVLMYAASSLQSGVPSRFSGSGSGTDFTLTISSLQPEDFATYYCQQSYSTPPITFGQGTRLEIKR
B6: REGN10713 (antibody, human IgG4 S228P, lambda, V domains shown)
VH: EVQLVESGGNLVQPGGSLRLSCAASGFTFTSHAMNWVRQAPGKGLEWVSVITGRGFDTHYADSVKGRFTISRDISKNTLYLQMNSLRAEDTAVYYCAKGLYDSGNYYIDYWGQGTLVTVSS
VL: QSVLTQPPSVSAAPGQKVTISCSGSSSNIGNNYVSWYQQLPGTAPKLLIYDNNKRPSGIPDRFSGSKSGTSATLGITGLQTGDEADYYCGTWDLSLSFNWVFGGGTKLTVLG

One assay deals with nanodisc embedded human CACNG1 expressed with a C-terminal PADRE-Flag-His tag (human) (UniProt Q06432). As to the kind of experiment: SPR (Biacore T200), 25 C, anti-His-captured human CACNG1 nanodisc. (In general: In SPR one partner is held on a chip, and binding of the other changes the refractive index at the surface.)
On to B1, for which the binding result is given as “binds”.
As to B2, the binding entry is reported as “binds”.
For B3, the binding entry is listed as “binds”.
Regarding B4, the binding result is listed as “binds”.
For the molecule B5, the binding result is on record as “binds”.
As to B6, the binding result was “binds”.

The target of another assay is human CACNG1, cell surface-expressed (human) (UniProt Q06432). The experiment in a line: human myotubes in vitro; closing statement of Example 4 (antibodies of FIG. 2).
On to B5, for which the binding result is on record as “binds”.
